In the assay the target is FLAG-MS2-x4E-T (Xenopus 4E-T, wild type) (Xenopus). In words: co-IP; extracts of Xenopus stage VI oocytes expressing FLAG-MS2-x4E-T from injected mRNA; anti-FLAG and Protein-G-Sepharose, NET buffer, 4 h at 4°C, elution with FLAG peptide; western blotting. On the technique in general: A western blot detects proteins with antibodies after separation by electrophoresis.

These are yes or no findings as the source states them, for the method shown. Binding seen in cells or lysates may run through a third protein. A result given as binding can be weak or reduced; the word gives no strength.

B1: Xp54 helicase (protein, UniProt P54824 1-481)
chain: MSTARTENPVLMGMSSQNGQLRGPLKPSAGPGGGGTQTQQINQLKNASTINSGSQQQAQSMSSIIKPGDDWKKTLKLPPKDLRIKTSDVTSTKGNEFEDYCLKRELLMGIFEMGWEKPSPIQEESIPIALSGRDILARAKNGTGKSGAYLIPLLERLDLKKDCIQAMVIVPTRELALQVSQICIQVSKHMGGAKVMATTGGTNLRDDIMRLDDTVHVVIATPGRILDLIKKGVAKVDHIQMIVLDEADKLLSQDFMQIMEDIIMTLPKNRQILLYSATFPLSVQKFMTLHLQKPYEINLMEELTLKGVTQYYAYVTERQKVHCLNTLFSRLQINQSIIFCNSSQRVELLAKKISQLGYSCFYIHAKMRQEHRNRVFHDFRNGLCRNLVCTDLFTRGIDIQAVNVVINFDFPKLAETYLHRIGRSGRFGHLGLAINLITYDDRFNLKSIEEQLGTEIKPIPSSIDKNLYVAEYHSESGEDKP
Turning to B1, the binding result was “binds”.

Source of the values: paper PMC3749138.
